{
  "sequences": {"note": "The chains behind the UniProt entries cited, without tags or fusion partners.", "UniProt P34972, whole entry": "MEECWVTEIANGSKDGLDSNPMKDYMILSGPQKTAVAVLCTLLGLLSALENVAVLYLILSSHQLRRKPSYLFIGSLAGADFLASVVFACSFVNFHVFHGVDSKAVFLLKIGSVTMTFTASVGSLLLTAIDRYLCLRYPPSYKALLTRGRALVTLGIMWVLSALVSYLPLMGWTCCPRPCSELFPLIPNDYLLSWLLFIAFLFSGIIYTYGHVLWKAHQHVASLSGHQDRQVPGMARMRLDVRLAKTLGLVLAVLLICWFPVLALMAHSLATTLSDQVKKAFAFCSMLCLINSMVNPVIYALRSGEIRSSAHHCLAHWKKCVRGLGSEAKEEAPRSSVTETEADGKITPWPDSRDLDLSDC"},
  "source": "the supplement of paper PMC6411743",
  "target": "CB2 (UniProt P34972)",
  "test": "NP40-soluble protein abundance relative to vehicle (solubility fold change) (ratio); higher = more soluble protein in presence of ATP",
  "summary_of_the_method": "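Jurkat crude lysate (Dounce-homogenised) was treated with eight concentrations from 0.1 to 10 mM for 10 min at room temperature, then 3 min at 37 °C. It was solubilised with 0.8% NP40 and benzonase (60 min, 4 °C) and ultracentrifuged, and the supernatant was TMT-labelled for LC-MS/MS. Intensities were vsn-normalised, and the value is the fold change against the NP40-processed vehicle per replicate, from three independent experiments.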",
  "note": "± gives the standard deviation of the averaged measurements. The entries are a selection whose mix differs from that of the whole data set.",
  "data": [
    {"smiles": "Nc1ncnc2c1ncn2[C@@H]1O[C@H](COP(=O)(O)OP(=O)(O)OP(=O)(O)O)[C@@H](O)[C@H]1O", "note": "[adenosine triphosphate]", "values": [
      {"measurement": "NP40-soluble protein abundance", "setting": "concentration: 1mM", "result": "0.964 ± 0.057"},
      {"measurement": "NP40-soluble protein abundance", "setting": "concentration: 2mM", "result": "0.969 ± 0.031"},
      {"measurement": "NP40-soluble protein abundance", "setting": "concentration: 4mM", "result": "0.946 ± 0.099"},
      {"measurement": "NP40-soluble protein abundance", "setting": "concentration: 6mM", "result": "1.03 ± 0.11"},
      {"measurement": "NP40-soluble protein abundance", "setting": "concentration: 8mM", "result": "0.937 ± 0.065"},
      {"measurement": "NP40-soluble protein abundance", "setting": "concentration: 10mM", "result": "0.908 ± 0.084"}
    ]}
  ]
}
